# Measurements reported in PubChem BioAssay AID485314 (National Center for Advancing Translational Sciences (NCATS), 2010).
# Hit rate of the full screen: of about 340,000 compounds, about 4,500 (1.3%) were called active. This list was built around the results that the source calls inconclusive (neither active nor inactive); the mix of calls is not that of the screen. Calls follow the shape of the dose curve; as a rule, active = well fitted inhibition curve with a large enough effect; inconclusive = small, poorly fitted or top-dose-only effect, or another doubt; inactive = no such curve, though single readings can be large or run the other way. Where the call is inconclusive, the potency comes from a doubtful curve fit.
# Target: DNA polymerase beta (Homo sapiens) (UniProt P06746)
# Test: qHTS Assay for Inhibitors of DNA Polymerase Beta
# Conditions: Pol beta primer extension/strand displacement, fluorescence kinetic; activity change, negative = inhibition: at 114 µM (top of the series)
# Method in brief: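 Pol beta (10 nM) was preincubated with compound for 15 min at room temperature. The reaction was then started with 50 nM substrate and read immediately and after a further 10 min at room temperature.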
# % is scaled to controls: 0 for no effect and ±100 for the full control effect; potency is read from the fitted curve at half-maximal effect.
SMILES,Potency,"activity change, negative = inhibition"
O=C(COC(=O)CNC(=O)c1ccco1)Nc1ccc(F)cc1,inactive,
Cc1cccc(NC(=O)Cn2nnc(-c3nc(-c4ccncc4)no3)c2N)c1,active: 56.2 µM,
COc1c(O)cc2oc(-c3ccc(O)c(O)c3)cc(=O)c2c1O,active: 6.31 µM,
O=C(CSc1nc2c(sc3ccccc32)c(=O)n1Cc1ccccc1)NCC1CCCO1 (configuration not stated),"inconclusive: 3.55 µM [inhibitor, full curve]",
O=C(CSC(=S)N1CCCC1)Nc1cc2c(cc1Br)OCCO2,inactive,
O=C(NN=C1c2ccccc2-c2ccccc21)c1ccccc1Br,active: 0.282 µM,
Cc1cccc(-n2c(SCC(=O)NCc3ccco3)nnc2-c2ccco2)c1,"inconclusive: 89.1 µM [inhibitor, single point]",
CCC(=O)N(CCC(c1ccc(C)cc1)c1ccco1)Cc1ccco1 (configuration not stated),active: 25.1 µM,
O=c1c2c([nH]c3ccccc13)CCCC2,inactive,
O=C(CCn1c(=O)c2sccc2n(Cc2ccccc2F)c1=O)NCc1ccc2c(c1)OCO2,inactive,
Cc1cccc(NC(=O)Cn2nc(-c3ccccc3)c3cnc4ccccc4c32)c1,inactive,
COCCN(C(=O)c1ccco1)c1nnc(-c2ccc(OC)cc2)s1,"inconclusive: 10 µM [inhibitor, partial curve, poor fit]",
C=CCn1c(SCC(=O)Nc2ccc(-c3nc4ccc(C)cc4s3)cc2)nnc1-c1ccccc1,active: 6.31 µM,
CC(=O)c1ccc(NC(=S)Nc2cccc3cnccc23)cc1,,inconclusive: -73.4% [inhibitor]
CC(=O)c1cc(CCC(=O)NC2CCCCCC2)oc1C,"inconclusive: 31.6 µM [inhibitor, single point]",
Cc1ccccc1NC(=O)Cn1cc(C(=O)c2ccco2)c2ccccc21,"inconclusive: 17.8 µM [inhibitor, full curve]",
O=C(NC1CCCC1)C(c1cccnc1)N(C(=O)c1ccco1)c1cccc(F)c1 (configuration not stated),inactive,
Cc1cc(OCC(=O)Nc2ccc(N3CCN(C(=O)c4ccco4)CC3)cc2)cc(C)c1Cl,"inconclusive: 6.31 µM [inhibitor, full curve, poor fit]",
CCOc1ccc(S(=O)(=O)Nc2ccccc2SC)c2cccnc12,"inconclusive: 89.1 µM [inhibitor, single point]",
COc1cc(NC(=O)Cn2nc(C(F)(F)F)c3c2CCC3)cc(OC)c1OC,inactive,
COc1ccccc1OCc1ccc(C(=O)Nc2ccncc2)o1,"inconclusive: 70.8 µM [inhibitor, single point]",
CC1=NOC(=O)/C1=C/c1ccc(-c2ccc(Cl)cc2)o1,"inconclusive: 14.1 µM [inhibitor, partial curve, poor fit]",
O=C1C=C(O)CC(c2cccs2)C1 (configuration not stated),active: 28.2 µM,

SMILES,Potency,"activity change, negative = inhibition"
Cc1c(C(=O)N/N=C/c2ccc(O)c(Br)c2)sc(N)c1C#N,"inconclusive: 89.1 µM [inhibitor, single point]",
COc1cc(C(CC(=O)Nc2ccc(C)c(F)c2)N2Cc3ccccc3C2=O)cc(OC)c1OC (configuration not stated),inactive,
O=C(NCCc1ccc(Cl)cc1)c1c2c(nc3ccccc13)C(=O)N(C1CCCCC1)C2,inactive,
N#C/C(=C(/O)CSc1ncn[nH]1)c1nc2ccccc2[nH]1,"inconclusive: 14.1 µM [inhibitor, partial curve]",
CCn1cc(C(=O)N(C)Cc2ccccc2)c(=O)c2cc(S(=O)(=O)N3CCc4ccccc4C3)ccc21,inactive,
CCN1c2ccccc2-c2nc(SCC(=O)Nc3cccc(C)c3C)ncc2S1(=O)=O,inactive,
CCc1ccc2nc3sc(C(=O)N4CCc5ccccc54)c(N)c3cc2c1,"inconclusive: 89.1 µM [inhibitor, single point]",
COc1ccc(NC(=O)c2ccc3c(c2)NC(=O)CO3)cc1OC,"inconclusive: 89.1 µM [inhibitor, single point]",
COc1ccc(N(C(=O)Cc2cccs2)C2C=CS(=O)(=O)C2)cc1 (configuration not stated),active: 15.8 µM,
CCS(=O)(=O)c1ccc2oc(SCC(=O)Nc3ccc(OC)c(OC)c3)nc2c1,"inconclusive: 89.1 µM [inhibitor, single point]",
Cn1cccc1Cc1nnc(SCC(=O)Nc2ccc3c(c2)OCCO3)n1-c1ccc(F)cc1,inactive,
COc1ccc(NC(=O)c2ccco2)cc1NC(=O)COc1ccc(C)c(C)c1,active: 11.2 µM,
C=CCN=C1SCC(=O)N1S(=O)(=O)c1ccc(C)cc1,"inconclusive: 0.355 µM [inhibitor, full curve, poor fit]",
Cc1cc(C(=O)Nc2sc3c(c2C#N)CCC3)no1,"inconclusive: 35.5 µM [inhibitor, single point]",
O=C(CCS(=O)(=O)c1ccc(Br)cc1)Nc1cc(F)ccc1F,active: 17.8 µM,
COC(=O)c1ccc(S(=O)(=O)c2ccc([N+](=O)[O-])cc2)cc1,"inconclusive: 0.126 µM [inhibitor, full curve, poor fit]",
CCn1nc(C)cc1C(=O)N1CCc2c([nH]c3ccccc23)C1c1cc(F)ccc1F (configuration not stated),"inconclusive: 89.1 µM [inhibitor, single point]",
Cc1nn(-c2ccccc2)c(Cl)c1C(=O)NCc1ccccc1F,"inconclusive: 3.16 µM [inhibitor, full curve, poor fit]",
CCOC(=O)c1ccc(CC(=O)c2oc3cc(O)ccc3c2C)o1,inactive,
O=S(=O)(c1cc(F)ccc1F)N1CCN(c2ccccn2)CC1,"inconclusive: 39.8 µM [inhibitor, single point]",
CSCC[C@H](NC(=O)[C@H](Cc1ccccc1)n1c(=O)[nH]c2ccccc2c1=O)C(=O)N[C@@H](Cc1ccccc1)C(=O)O,"inconclusive: 39.8 µM [inhibitor, single point]",
COc1ccccc1NC(=S)NC(=O)/C=C/c1ccco1,active: 44.7 µM,
Cc1ccc(-c2nn3c(-c4ccccc4C)nnc3c3ccccc23)cc1,"inconclusive: 79.4 µM [inhibitor, single point]",
CCOc1ccc(NC(=O)c2ccc(NC(=O)COC(=O)Cc3ccc(OC)cc3)cc2)cc1,"inconclusive: 0.316 µM [inhibitor, full curve, poor fit]",

# Single records (already shown):
# CCOc1ccc(NC(=O)c2ccc(NC(=O)COC(=O)Cc3ccc(OC)cc3)cc2)cc1 in the list: Potency: inconclusive: 0.316 µM [inhibitor, full curve, poor fit]
# CCOC(=O)c1ccc(CC(=O)c2oc3cc(O)ccc3c2C)o1 in the list: Potency: inactive
# COc1ccc(N(C(=O)Cc2cccs2)C2C=CS(=O)(=O)C2)cc1 (configuration not stated) in the list: Potency: active: 15.8 µM
# Cc1nn(-c2ccccc2)c(Cl)c1C(=O)NCc1ccccc1F in the list: Potency: inconclusive: 3.16 µM [inhibitor, full curve, poor fit]

# Going on with the list.

SMILES,Potency,"activity change, negative = inhibition"
COc1cc(C(=O)NC(C)c2ccc(-n3ccnc3)cc2)cc(OC)c1C (configuration not stated),"inconclusive: 100 µM [inhibitor, single point]",
Cc1noc(C)c1C(=O)OCC(=O)c1c[nH]c2ccccc12,inactive,
CCOC(=O)c1cc(-c2ccccc2)n(-c2cccc(C(=O)Nc3cccc(SC)c3)c2)c1C,"inconclusive: 89.1 µM [inhibitor, single point]",
COc1ccc(NC(=O)Nc2ccc3nccnc3c2)cc1,"inconclusive: 100 µM [inhibitor, single point]",
O=C(O)CCCCCn1c(SCC(=O)Nc2ccc(F)cc2)nc2ccsc2c1=O,inactive,
N#C/C(=C(/O)CCl)c1nc(-c2ccccc2)cs1,"inconclusive: 39.8 µM [inhibitor, single point]",
CCCOc1ccc(C2C(=O)N(C3CCCCCC3)CC(=O)N2Cc2ccccc2OC)cc1OC (configuration not stated),inactive,
COc1ccc(CN(C)CC(O)COC(c2ccc(OC)cc2)c2ccc(OC)cc2)cc1 (configuration not stated),"inconclusive: 31.6 µM [inhibitor, single point]",
c1ccc2c(-c3nc(C4CCCCC4)no3)cc(-c3ccncc3)nc2c1,"inconclusive: 89.1 µM [inhibitor, single point]",
N=C1C(c2ccccc2)=C(O)CN1c1ccccc1,"inconclusive: 89.1 µM [inhibitor, single point]",
CCc1nnc(NC(=O)CSc2sc3c(O)cc(=O)[nH]c3c2C#N)s1,active: 0.562 µM,
CN(C)C(=O)c1ccccc1NC(=O)Cc1cccc2ccccc12,"inconclusive: 31.6 µM [inhibitor, single point]",
CCOc1ccc(Nc2nc(-c3cccc(Cl)c3)c3c(n2)-c2ccccc2OC3)cc1,"inconclusive: 1.78 µM [inhibitor, full curve, poor fit]",
CCc1ccccc1Nc1nn2c(=O)c3ccc(C(=O)NCCC4=CCCCC4)cc3nc2s1,inactive,
O=C(O)Cn1cc(/C=N/NC(=O)c2cc3cc(Br)ccc3o2)c2ccccc21,,inconclusive: -78.1% [inhibitor]
CC(=O)Nc1cccc(Cl)c1C(=O)O,inactive,
O=C(NCCc1ccccc1)c1cc(Nc2ccccc2)nc2ccccc12,inactive,
Cc1ccc(CNC(=O)CSc2nc3c(sc4ccccc43)c(=O)n2CCCC(=O)NCCO)cc1,"inconclusive: 44.7 µM [inhibitor, partial curve]",
O=C(CSc1ccc2nnc(-c3ccccn3)n2n1)Nc1cccc(F)c1,"inconclusive: 0.1 µM [inhibitor, full curve, poor fit]",
Cc1cc(C(F)F)n2nc(C(=O)Nc3sc4c(c3C#N)CCC4)nc2n1,"inconclusive: 15.8 µM [inhibitor, full curve]",
Cc1nc2ccc(C(=O)c3ccccc3)cc2[nH]1,"inconclusive: 0.112 µM [inhibitor, full curve, poor fit]",
Cc1ccc(C(=O)NC(=S)/C=C2\N(C)c3ccccc3C2(C)C)cc1,inactive,
N=C1/C(=C\c2ccc(-c3ccc(C(=O)O)cc3)o2)C(=O)N=C2SC=C(c3ccccc3)N12,,inconclusive: -95.2% [inhibitor]
O=C(NC1=C(NC2CCS(=O)(=O)C2)C(=O)c2ccccc2C1=O)c1ccccc1 (configuration not stated),"inconclusive: 28.2 µM [inhibitor, full curve]",
